Results on 1 molecule are retold here after paper PMC6937732.

For this experiment, the target named is T1, HA-TOPK (pcDNA3-HA-TOPK) (UniProt Q96KB5).
T1 sequence: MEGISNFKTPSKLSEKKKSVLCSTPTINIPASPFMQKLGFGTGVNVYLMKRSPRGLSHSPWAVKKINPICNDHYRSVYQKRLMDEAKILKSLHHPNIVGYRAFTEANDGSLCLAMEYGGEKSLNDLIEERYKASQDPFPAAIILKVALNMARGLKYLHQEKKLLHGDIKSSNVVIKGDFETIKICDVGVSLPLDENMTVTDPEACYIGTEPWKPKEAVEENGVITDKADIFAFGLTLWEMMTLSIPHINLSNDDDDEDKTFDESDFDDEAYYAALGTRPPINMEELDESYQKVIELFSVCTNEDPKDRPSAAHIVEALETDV
As to the kind of experiment: co-IP; HEK293 cells transfected with pcDNA3-HA-TOPK and/or pDEST-myc-γ-catenin for 72 h; lysed in CHAPS buffer; immunoprecipitated with anti-HA antibody; myc detected by western blotting. A general note: A western blot detects proteins with antibodies after separation by electrophoresis.

These are yes or no findings as the source states them, for the method shown. In cells and extracts the contact can be indirect. Some results given as binding are weak or reduced against the parent protein; the word gives no strength. Tags and fused reporters may be left off the sequences shown.

B1: myc-γ-catenin (pDEST-myc-γ-catenin) (protein, UniProt P14923 1-745)
chain: MEVMNLMEQPIKVTEWQQTYTYDSGIHSGANTCVPSVSSKGIMEEDEACGRQYTLKKTTTYTQGVPPSQGDLEYQMSTTARAKRVREAMCPGVSGEDSSLLLATQVEGQATNLQRLAEPSQLLKSAIVHLINYQDDAELATRALPELTKLLNDEDPVVVTKAAMIVNQLSKKEASRRALMGSPQLVAAVVRTMQNTSDLDTARCTTSILHNLSHHREGLLAIFKSGGIPALVRMLSSPVESVLFYAITTLHNLLLYQEGAKMAVRLADGLQKMVPLLNKNNPKFLAITTDCLQLLAYGNQESKLIILANGGPQALVQIMRNYSYEKLLWTTSRVLKVLSVCPSNKPAIVEAGGMQALGKHLTSNSPRLVQNCLWTLRNLSDVATKQEGLESVLKILVNQLSVDDVNVLTCATGTLSNLTCNNSKNKTLVTQNSGVEALIHAILRAGDKDDITEPAVCALRHLTSRHPEAEMAQNSVRLNYGIPAIVKLLNQPNQWPLVKATIGLIRNLALCPANHAPLQEAAVIPRLVQLLVKAHQDAQRHVAAGTQQPYTDGVRMEEIVEGCTGALHILARDPMNRMEIFRLNTIPLFVQLLYSSVENIQRVAAGVLCELAQDKEAADAIDAEGASAPLMELLHSRNEGTATYAAAVLFRISEDKNPDYRKRVSVELTNSLFKHDPAAWEAAQSMIPINEPYGDDMDATYRPMYSSDVPLDPLEMHMDMDGDYPIDTYSDGLRPPYPTADHMLA
For B1, the binding result is “binds”.
